# Drug screen on melanoma cell lines: apoptosis marker

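Human melanoma cells were exposed to two drugs together for 72 h in 1,536-well plates and read by automated microscopy after fixing and staining. The read-out is the fraction of cleaved-PARP-positive nuclei, in % of that fraction in the DMSO control; 200 means twice the control level of this apoptosis marker. Every drug was used at one fixed concentration, the higher of two screened. The file gives one value for each pair and line, without errors, so small differences may be noise. Basal and induced levels differ widely between cell lines.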
This is part of the screen, not chosen by result.
An entry leaves out what has no value listed here.
A dash means that no value is listed here.

Drugs:
JZL184, 5 µM: O=C(Oc1ccc([N+](=O)[O-])cc1)N1CCC(C(O)(c2ccc3c(c2)OCO3)c2ccc3c(c2)OCO3)CC1
vorinostat, 0.4 µM: O=C(CCCCCCC(=O)Nc1ccccc1)NO
lestaurtinib, 0.02 µM: C[C@]12O[C@H](C[C@]1(O)CO)n1c3ccccc3c3c4c(c5c6ccccc6n2c5c31)CNC4=O
dorsomorphin, 2 µM: c1cc(-c2cnn3cc(-c4ccc(OCCN5CCCCC5)cc4)cnc23)ccn1

| Cell line | lestaurtinib and JZL184 | vorinostat and lestaurtinib | lestaurtinib and dorsomorphin | dorsomorphin and JZL184 | vorinostat and JZL184 |
|---|---|---|---|---|---|
| G-361 | 106 | 174 | 332 | 130 | 86.4 |
| WM115 | 52.9 | 185 | 306 | 128 | 65.6 |
| WM1716 | 103 | 97.4 | 26.6 | 25.4 | 113 |
| RPMI-7951 | 91.8 | 46.1 | 92.5 | 98.1 | 99.3 |
| WM1745 | - | 124 | - | 234 | 119 |
| COLO 829 | 205 | 64.9 | 91.1 | 18.2 | 135 |
| SK-MEL-28 | 147 | 199 | 48.2 | 84.1 | 189 |
| RVH-421 | 259 | 62.3 | 61.2 | 83.5 | 52.2 |
| COLO 792 | 168 | 131 | 127 | 149 | 92.8 |
| UACC-62 | 300 | 106 | 204 | 232 | 199 |
| 501mel | 323 | - | 369 | 207 | - |
| LOX IMVI | 145 | 16.8 | 162 | 90.9 | 87.1 |
| MeWo | 95.7 | 263 | 187 | 92.8 | 78.8 |
| SK-MEL-5 | 190 | 450 | 54.1 | 70.8 | 162 |
| COLO 800 | 59.0 | 240 | 87.0 | 68.0 | 325 |
| IST-MEL1 | 51.9 | 125 | 418 | 108 | 52.5 |
| C32 | 79.4 | 49.0 | 110 | 191 | 97.7 |
| WM3526 | 206 | 250 | 65.5 | 162 | 73.2 |
| WM451Lu | 123 | 149 | 272 | 63.5 | 134 |
| A2058 | 194 | 87.6 | 209 | 270 | 101 |
| UACC-257 | 21.9 | 117 | 32.7 | 25.4 | 54.0 |
| MEL-HO | 92.3 | 143 | 85.8 | 50.5 | 53.2 |
| IPC-298 | 163 | 144 | 458 | 104 | 104 |
| WM3619 | 101 | 124 | 123 | 159 | 122 |
| LB2518-MEL | 164 | 291 | 66.8 | 223 | - |
| MZ2-MEL | 67.2 | 91.2 | 88.2 | 175 | - |
| SK-MEL-30 | 124 | 65.0 | 103 | 188 | 175 |
| SK-MEL-2 | 127 | 166 | 91.9 | 73.4 | - |
| A375 | 136 | - | 93.1 | 99.8 | 72.1 |
| A101D | 228 | 111 | 248 | 55.0 | 28.8 |

For reference, 2 entries once more:

{"cell line": "COLO 792", "lestaurtinib and JZL184": 168, "vorinostat and lestaurtinib": 131, "lestaurtinib and dorsomorphin": 127, "dorsomorphin and JZL184": 149, "vorinostat and JZL184": 92.8}
{"cell line": "LB2518-MEL", "lestaurtinib and JZL184": 164, "vorinostat and lestaurtinib": 291, "lestaurtinib and dorsomorphin": 66.8, "dorsomorphin and JZL184": 223}

From a melanoma drug combination screen (doi:10.1371/journal.pone.0140310); values rounded.